From the supplement of paper PMC8728848
The other results are listed elsewhere or left out.

Experiments:
Assay in all cases: glycan array binding signal (z-score within array); higher = stronger binding
Settings in all cases: glycan notation: IUPAC condensed, linker removed
Neu5Ac(a2-3)Gal = molecular target: Neu5Ac(a2-3)Gal
In short: (§1)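 From the Consortium for Functional Glycomics database, 3228 arrays were curated, keeping only those whose protein sequence was available. Binding is given as a within-array Z-score averaged across arrays sharing a protein sequence and across linkers. Negative Z-scores can be read as non-binding.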

[1] = molecular target: Neu5Ac(a2-3)Gal(b1-3)GalNAc
In short: as §1

[2] = molecular target: Neu5Ac(a2-3)Gal(b1-3)GalNAc(b1-3)Gal(a1-4)Gal(b1-4)Glc
In short: as §1

[3] = molecular target: Neu5Ac(a2-3)Gal(b1-3)GalNAc(b1-4)Gal(b1-4)Glc
In short: as §1

[4] = molecular target: Neu5Ac(a2-3)Gal(b1-3)GalNAc(b1-4)[Neu5Ac(a2-3)]Gal(b1-4)Glc
In short: as §1

[5] = molecular target: Neu5Ac(a2-3)Gal(b1-3)GalNAc(b1-4)[Neu5Ac(a2-8)Neu5Ac(a2-3)]Gal(b1-4)Glc
In short: as §1

[6] = molecular target: Neu5Ac(a2-3)Gal(b1-3)GalNAc6S
In short: as §1

[7] = molecular target: Neu5Ac(a2-3)Gal(b1-3)GlcNAc
In short: as §1

[8] = molecular target: Neu5Ac(a2-3)Gal(b1-3)GlcNAc(b1-2)Man
In short: as §1

[9] = molecular target: Neu5Ac(a2-3)Gal(b1-3)GlcNAc(b1-2)Man(a1-3)[GlcNAc(b1-4)][Neu5Ac(a2-3)Gal(b1-3)GlcNAc(b1-2)Man(a1-6)]Man(b1-4)GlcNAc(b1-4)GlcNAc
In short: as §1

[10] = molecular target: Neu5Ac(a2-3)Gal(b1-3)GlcNAc(b1-2)Man(a1-3)[Neu5Ac(a2-3)Gal(b1-3)GlcNAc(b1-2)Man(a1-6)]Man(b1-4)GlcNAc(b1-4)GlcNAc
In short: as §1

[11] = molecular target: Neu5Ac(a2-3)Gal(b1-3)GlcNAc(b1-2)[Neu5Ac(a2-3)Gal(b1-3)GlcNAc(b1-4)]Man(a1-6)[Neu5Ac(a2-3)Gal(b1-3)GlcNAc(b1-2)Man(a1-3)]Man(b1-4)GlcNAc(b1-4)GlcNAc
In short: as §1

[12] = molecular target: Neu5Ac(a2-3)Gal(b1-3)GlcNAc(b1-3)Gal(b1-3)GlcNAc
In short: as §1

[13] = molecular target: Neu5Ac(a2-3)Gal(b1-3)GlcNAc(b1-3)Gal(b1-4)GlcNAc
In short: as §1

[14] = molecular target: Neu5Ac(a2-3)Gal(b1-3)GlcNAc(b1-3)GalNAc
In short: as §1

[15] = molecular target: Neu5Ac(a2-3)Gal(b1-3)GlcNAc(b1-6)GalNAc
In short: as §1

[16] = molecular target: Neu5Ac(a2-3)Gal(b1-3)GlcNAc6S
In short: as §1

[17] = molecular target: Neu5Ac(a2-3)Gal(b1-3)[Fuc(a1-4)]GlcNAc
In short: as §1

[18] = molecular target: Neu5Ac(a2-3)Gal(b1-3)[Fuc(a1-4)]GlcNAc(b1-3)Gal(b1-3)[Fuc(a1-4)]GlcNAc
In short: as §1

[19] = molecular target: Neu5Ac(a2-3)Gal(b1-3)[Fuc(a1-4)]GlcNAc(b1-3)Gal(b1-4)[Fuc(a1-3)]GlcNAc
In short: as §1

[20] = molecular target: Neu5Ac(a2-3)Gal(b1-3)[GlcNAc(b1-6)]GalNAc
In short: as §1

[21] = molecular target: Neu5Ac(a2-3)Gal(b1-3)[Neu5Ac(a2-6)]GalNAc
In short: as §1

[22] = molecular target: Neu5Ac(a2-3)Gal(b1-3)[Neu5Ac(a2-6)]GlcNAc(b1-3)[Fuc(a1-3)[Gal(b1-4)]GlcNAc(b1-6)]Gal(b1-4)Glc
In short: as §1

[23] = molecular target: Neu5Ac(a2-3)Gal(b1-3)]Neu5Ac(a2-3)Gal(b1-4)]GlcNAc
In short: as §1

Neu5Ac(a2-3)Gal(b1-4)Glc = molecular target: Neu5Ac(a2-3)Gal(b1-4)Glc
In short: as §1

[24] = molecular target: Neu5Ac(a2-3)Gal(b1-4)GlcNAc
In short: as §1

[25] = molecular target: Neu5Ac(a2-3)Gal(b1-4)GlcNAc(b1-2)Man
In short: as §1

[26] = molecular target: Neu5Ac(a2-3)Gal(b1-4)GlcNAc(b1-2)Man(a1-3)[GlcNAc(b1-4)][Neu5Ac(a2-3)Gal(b1-4)GlcNAc(b1-2)Man(a1-6)]Man(b1-4)GlcNAc(b1-4)GlcNAc
In short: as §1

[27] = molecular target: Neu5Ac(a2-3)Gal(b1-4)GlcNAc(b1-2)Man(a1-3)[Neu5Ac(a2-3)Gal(b1-4)GlcNAc(b1-2)Man(a1-6)]Man(b1-4)GlcNAc(b1-4)GlcNAc
In short: as §1

[28] = molecular target: Neu5Ac(a2-3)Gal(b1-4)GlcNAc(b1-2)Man(a1-3)[Neu5Ac(a2-3)Gal(b1-4)GlcNAc(b1-2)Man(a1-6)]Man(b1-4)GlcNAc(b1-4)[Fuc(a1-6)]GlcNAc
In short: as §1

[29] = molecular target: Neu5Ac(a2-3)Gal(b1-4)GlcNAc(b1-2)Man(a1-3)[Neu5Ac(a2-6)Gal(b1-4)GlcNAc(b1-2)Man(a1-6)]Man(b1-4)GlcNAc(b1-4)GlcNAc
In short: as §1

[30] = molecular target: Neu5Ac(a2-3)Gal(b1-4)GlcNAc(b1-2)[Neu5Ac(a2-3)Gal(b1-4)GlcNAc(b1-4)]Man(a1-3)[GlcNAc(b1-4)][Neu5Ac(a2-3)Gal(b1-4)GlcNAc(b1-2)[Neu5Ac(a2-3)Gal(b1-4)GlcNAc(b1-6)]Man(a1-6)]Man(b1-4)GlcNAc(b1-4)GlcNAc
In short: as §1

[31] = molecular target: Neu5Ac(a2-3)Gal(b1-4)GlcNAc(b1-2)[Neu5Ac(a2-3)Gal(b1-4)GlcNAc(b1-4)]Man(a1-3)[GlcNAc(b1-4)][Neu5Ac(a2-3)Gal(b1-4)GlcNAc(b1-4)Man(a1-6)]Man(b1-4)GlcNAc(b1-4)GlcNAc
In short: as §1

[32] = molecular target: Neu5Ac(a2-3)Gal(b1-4)GlcNAc(b1-2)[Neu5Ac(a2-3)Gal(b1-4)GlcNAc(b1-6)]Man(a1-6)[Neu5Ac(a2-3)Gal(b1-4)GlcNAc(b1-2)Man(a1-3)][GlcNAc(b1-4)]Man(b1-4)GlcNAc(b1-4)GlcNAc
In short: as §1

[33] = molecular target: Neu5Ac(a2-3)Gal(b1-4)GlcNAc(b1-3)Gal
In short: as §1

[34] = molecular target: Neu5Ac(a2-3)Gal(b1-4)GlcNAc(b1-3)Gal(b1-3)GlcNAc
In short: as §1

[35] = molecular target: Neu5Ac(a2-3)Gal(b1-4)GlcNAc(b1-3)Gal(b1-4)GlcNAc
In short: as §1

B1: LlpA (Arthrobacter sp) (protein)
chain: MGSSHHHHHHSSGLVPRGSHMTLHPETALRPGAAATSPNSRYRLLYQTDGNLVLYGPDGPLWDSGTNGHGAGACIMQADGNLVLYGPNDEYVWDTETDNNPGSRLVIQDDGNAVIYRPDGSPLWATETCQPPGSADSHVLQSGSTLTPTHGIRSANGLYGLLYQTDGNLVFYGPDGPLWDSGTNGRGAGACIMQPDGNLVLYGPHDEYVWDTETDNNPGSRLVIQDDGNAVIYRPDGNPTWVTGTH
glycan array binding signal (z-score) (Neu5Ac(a2-3)Gal): -0.845 | glycan array binding signal (z-score) [1]: -0.725 | glycan array binding signal (z-score) [2]: -0.657 | glycan array binding signal (z-score) [3]: -1.33 | glycan array binding signal (z-score) [4]: -0.467 | glycan array binding signal (z-score) [5]: -0.752 | glycan array binding signal (z-score) [6]: -0.443 | glycan array binding signal (z-score) [7]: 0.653 | glycan array binding signal (z-score) [8]: -0.418 | glycan array binding signal (z-score) [9]: -0.024 | glycan array binding signal (z-score) [10]: -0.65 | glycan array binding signal (z-score) [11]: 1.49 | glycan array binding signal (z-score) [12]: -1.42 | glycan array binding signal (z-score) [13]: -0.694 | glycan array binding signal (z-score) [14]: -1.13 | glycan array binding signal (z-score) [15]: 0.849 | glycan array binding signal (z-score) [16]: 1.33 | glycan array binding signal (z-score) [17]: -0.881 | glycan array binding signal (z-score) [18]: 0.539 | glycan array binding signal (z-score) [19]: 0.903 | glycan array binding signal (z-score) [20]: -0.462 | glycan array binding signal (z-score) [21]: -0.644 | glycan array binding signal (z-score) [22]: 0.69 | glycan array binding signal (z-score) [23]: 0.522 | glycan array binding signal (z-score) (Neu5Ac(a2-3)Gal(b1-4)Glc): 0.556 | glycan array binding signal (z-score) [24]: 0.319 | glycan array binding signal (z-score) [25]: 1.07 | glycan array binding signal (z-score) [26]: -0.156 | glycan array binding signal (z-score) [27]: -1.12 | glycan array binding signal (z-score) [28]: 0.142 | glycan array binding signal (z-score) [29]: 0.29 | glycan array binding signal (z-score) [30]: -0.255 | glycan array binding signal (z-score) [31]: -0.992 | glycan array binding signal (z-score) [32]: -0.439 | glycan array binding signal (z-score) [33]: -0.555 | glycan array binding signal (z-score) [34]: 0.273 | glycan array binding signal (z-score) [35]: 0.79
